Data on one molecule can be found in PMC4600732.

The chains behind the UniProt entries cited, without tags or fusion partners.
UniProt O95819: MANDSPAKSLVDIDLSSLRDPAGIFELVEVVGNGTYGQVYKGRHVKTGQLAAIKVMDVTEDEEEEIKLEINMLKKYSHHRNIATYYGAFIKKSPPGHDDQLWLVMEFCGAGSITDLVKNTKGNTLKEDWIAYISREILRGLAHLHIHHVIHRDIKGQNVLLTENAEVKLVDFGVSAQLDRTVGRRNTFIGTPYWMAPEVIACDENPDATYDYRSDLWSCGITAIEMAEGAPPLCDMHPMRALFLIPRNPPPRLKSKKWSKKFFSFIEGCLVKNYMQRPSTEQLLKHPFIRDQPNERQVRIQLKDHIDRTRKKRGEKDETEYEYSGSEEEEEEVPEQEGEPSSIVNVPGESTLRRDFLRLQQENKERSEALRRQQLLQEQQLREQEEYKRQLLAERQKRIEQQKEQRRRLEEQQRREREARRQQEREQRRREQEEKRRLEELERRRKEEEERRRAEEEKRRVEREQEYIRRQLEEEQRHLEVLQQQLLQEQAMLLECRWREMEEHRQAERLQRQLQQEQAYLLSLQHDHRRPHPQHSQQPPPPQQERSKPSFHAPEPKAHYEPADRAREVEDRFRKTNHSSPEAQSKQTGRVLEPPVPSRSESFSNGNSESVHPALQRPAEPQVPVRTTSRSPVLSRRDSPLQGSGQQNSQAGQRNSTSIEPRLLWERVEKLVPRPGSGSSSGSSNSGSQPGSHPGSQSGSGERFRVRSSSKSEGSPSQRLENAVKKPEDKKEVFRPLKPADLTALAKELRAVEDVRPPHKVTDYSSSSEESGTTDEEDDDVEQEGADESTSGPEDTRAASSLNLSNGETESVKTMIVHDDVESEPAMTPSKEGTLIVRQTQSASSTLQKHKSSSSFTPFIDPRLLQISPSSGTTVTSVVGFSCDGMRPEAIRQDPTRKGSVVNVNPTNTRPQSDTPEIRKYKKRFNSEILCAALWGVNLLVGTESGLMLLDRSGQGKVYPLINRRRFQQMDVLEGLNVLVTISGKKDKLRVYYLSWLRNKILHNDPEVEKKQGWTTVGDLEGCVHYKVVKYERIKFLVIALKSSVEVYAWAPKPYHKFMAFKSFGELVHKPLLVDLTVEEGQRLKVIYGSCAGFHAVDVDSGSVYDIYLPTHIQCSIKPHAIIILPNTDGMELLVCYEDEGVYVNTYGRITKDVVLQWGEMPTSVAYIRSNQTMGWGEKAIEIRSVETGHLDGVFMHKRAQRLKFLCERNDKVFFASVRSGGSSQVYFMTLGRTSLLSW

The assay deals with MAP4K4, endogenous (human (endogenous in HEK293A)) (UniProt O95819). Description: co-IP; MST1 and MAP4K4 antibodies used for co-immunoprecipitation with HEK293A cell lysates (endogenous proteins).

These are yes or no findings as the source states them, for the method shown. Binding seen in cells or lysates may run through a third protein.

B1: SAV1 (Sav family WW domain-containing protein 1), endogenous (protein, UniProt Q9H4B6 1-383)
chain: MLSRKKTKNEVSKPAEVQGKYVKKETSPLLRNLMPSFIRHGPTIPRRTDICLPDSSPNAFSTSGDVVSRNQSFLRTPIQRTPHEIMRRESNRLSAPSYLARSLADVPREYGSSQSFVTEVSFAVENGDSGSRYYYSDNFFDGQRKRPLGDRAHEDYRYYEYNHDLFQRMPQNQGRHASGIGRVAATSLGNLTNHGSEDLPLPPGWSVDWTMRGRKYYIDHNTNTTHWSHPLEREGLPPGWERVESSEFGTYYVDHTNKKAQYRHPCAPSVPRYDQPPPVTYQPQQTERNQSLLVPANPYHTAEIPDWLQVYARAPVKYDHILKWELFQLADLDTYQGMLKLLFMKELEQIVKMYEAYRQALLTELENRKQRQQWYAQQHGKNF
On to B1, for which the binding entry is recorded as “no binding”.
